Reference: patent US8093288B2, “Genipin derivatives and uses thereof” (Beth Israel Deaconess Medical Center, priority 2003, dated 2012)

Assay: Comparative color assay for crosslinking with glycine
Settings: pH 7 buffer, equimolar glycine, 80° C., after 4 hours

| Structure (SMILES) | crosslinking activity (color of solution after treatment with glycine) | crosslinking activity (color of solution after treatment with glycine) (listed as D1) |
| --- | --- | --- |
| COC(=O)C1=CO[C@@H]2OC[C@@]3(O)[C@@H]2[C@@H]1C[C@H]3Cl [compound 55] | still clear | no crosslinking activity |
| COC(=O)C1=CO[C@@H](O)[C@@H]2C(CO)=CC[C@H]12 [genipin] | turned dark blue | – |
